Data as given in PMC5348329.
No constants are given. Whether binding was seen depends on the method and setting. Binding seen in cells or lysates may run through a third protein. Some binding calls cover weakened binding; strength is not graded here. For some of these results: Tags and fused reporters may be left off the sequences shown.

The chains behind the UniProt entries cited, without tags or fusion partners.
UniProt P35222: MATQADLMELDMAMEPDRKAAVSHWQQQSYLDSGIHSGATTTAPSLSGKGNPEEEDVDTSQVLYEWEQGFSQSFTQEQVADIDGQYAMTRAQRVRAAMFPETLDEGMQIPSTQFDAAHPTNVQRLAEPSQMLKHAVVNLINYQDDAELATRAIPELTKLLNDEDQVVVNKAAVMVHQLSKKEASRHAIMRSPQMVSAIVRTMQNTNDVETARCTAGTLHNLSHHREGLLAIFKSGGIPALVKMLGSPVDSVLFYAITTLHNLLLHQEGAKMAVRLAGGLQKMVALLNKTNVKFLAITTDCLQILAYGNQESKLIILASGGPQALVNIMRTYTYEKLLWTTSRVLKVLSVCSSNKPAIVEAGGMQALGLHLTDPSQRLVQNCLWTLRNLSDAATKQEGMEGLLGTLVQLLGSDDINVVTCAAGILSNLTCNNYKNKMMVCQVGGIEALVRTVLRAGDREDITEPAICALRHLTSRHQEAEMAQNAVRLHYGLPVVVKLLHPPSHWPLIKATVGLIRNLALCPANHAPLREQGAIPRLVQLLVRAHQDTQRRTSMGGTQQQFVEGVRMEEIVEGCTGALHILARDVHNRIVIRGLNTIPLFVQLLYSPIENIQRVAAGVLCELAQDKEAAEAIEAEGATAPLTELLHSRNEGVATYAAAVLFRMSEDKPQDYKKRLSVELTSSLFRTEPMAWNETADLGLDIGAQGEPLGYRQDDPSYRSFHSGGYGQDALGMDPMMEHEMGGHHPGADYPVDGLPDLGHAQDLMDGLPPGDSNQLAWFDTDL

Experiments:
GST-fused CARF = target: T1, GST-fused CARF (UniProt Q9NXV6); assay: pull-down; GST-CARF fusion protein purified and incubated with 7404 cell lysate; only the target purified
T1 sequence: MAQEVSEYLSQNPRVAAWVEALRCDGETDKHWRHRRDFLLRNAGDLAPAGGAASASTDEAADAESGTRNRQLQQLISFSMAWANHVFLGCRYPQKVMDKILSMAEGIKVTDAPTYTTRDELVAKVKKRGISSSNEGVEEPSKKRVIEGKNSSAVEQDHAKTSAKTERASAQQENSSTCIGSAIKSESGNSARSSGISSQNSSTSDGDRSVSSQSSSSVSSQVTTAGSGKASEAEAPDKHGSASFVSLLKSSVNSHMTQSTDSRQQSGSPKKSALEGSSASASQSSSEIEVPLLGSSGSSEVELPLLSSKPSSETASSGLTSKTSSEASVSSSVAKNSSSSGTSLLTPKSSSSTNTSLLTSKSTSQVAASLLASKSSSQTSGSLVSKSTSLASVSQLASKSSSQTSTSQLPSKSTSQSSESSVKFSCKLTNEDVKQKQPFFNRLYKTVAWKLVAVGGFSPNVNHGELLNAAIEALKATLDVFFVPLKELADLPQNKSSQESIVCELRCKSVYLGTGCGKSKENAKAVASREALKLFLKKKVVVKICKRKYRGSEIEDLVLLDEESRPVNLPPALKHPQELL

[1] = target: beta-catenin (as in the co-precipitations with ICAT and TCF4, Figure 6E-F) (UniProt P35222); assay: co-IP; interaction of beta-catenin with ICAT or TCF4, with and without over-expression of CARF; cells and precipitated partner not stated
Flag-beta-catenin = Flag-beta-catenin (UniProt P35222); assay: co-IP; immunoprecipitation from 7404 cells with exogenously expressed Flag-beta-catenin and myc-CARF; lysis in Tris-buffered saline pH 7.4, 150 mM NaCl, 1% NP-40; Protein A-Sepharose
[2] = target: beta-catenin (endogenously expressed) (human (endogenous in 7404 and Hep3B)) (UniProt P35222); assay: co-IP; immunoprecipitation of endogenously expressed proteins in 7404 and Hep3B cells; lysis in Tris-buffered saline pH 7.4, 150 mM NaCl, 1% NP-40; Protein A-Sepharose

For “beta-catenin (endogenously expressed) (from UniProt P35222 1-781)”, the binding (GST-fused CARF) was “binds”.

B1: myc-tagged CARF (collaborator of ARF) (protein, UniProt Q9NXV6 1-580)
chain: MAQEVSEYLSQNPRVAAWVEALRCDGETDKHWRHRRDFLLRNAGDLAPAGGAASASTDEAADAESGTRNRQLQQLISFSMAWANHVFLGCRYPQKVMDKILSMAEGIKVTDAPTYTTRDELVAKVKKRGISSSNEGVEEPSKKRVIEGKNSSAVEQDHAKTSAKTERASAQQENSSTCIGSAIKSESGNSARSSGISSQNSSTSDGDRSVSSQSSSSVSSQVTTAGSGKASEAEAPDKHGSASFVSLLKSSVNSHMTQSTDSRQQSGSPKKSALEGSSASASQSSSEIEVPLLGSSGSSEVELPLLSSKPSSETASSGLTSKTSSEASVSSSVAKNSSSSGTSLLTPKSSSSTNTSLLTSKSTSQVAASLLASKSSSQTSGSLVSKSTSLASVSQLASKSSSQTSTSQLPSKSTSQSSESSVKFSCKLTNEDVKQKQPFFNRLYKTVAWKLVAVGGFSPNVNHGELLNAAIEALKATLDVFFVPLKELADLPQNKSSQESIVCELRCKSVYLGTGCGKSKENAKAVASREALKLFLKKKVVVKICKRKYRGSEIEDLVLLDEESRPVNLPPALKHPQELL
B1 was tested, and the binding [1] was “binds” and the binding (Flag-beta-catenin) was “binds”.

B2: CARF (endogenously expressed) (protein, UniProt Q9NXV6 1-580)
chain: MAQEVSEYLSQNPRVAAWVEALRCDGETDKHWRHRRDFLLRNAGDLAPAGGAASASTDEAADAESGTRNRQLQQLISFSMAWANHVFLGCRYPQKVMDKILSMAEGIKVTDAPTYTTRDELVAKVKKRGISSSNEGVEEPSKKRVIEGKNSSAVEQDHAKTSAKTERASAQQENSSTCIGSAIKSESGNSARSSGISSQNSSTSDGDRSVSSQSSSSVSSQVTTAGSGKASEAEAPDKHGSASFVSLLKSSVNSHMTQSTDSRQQSGSPKKSALEGSSASASQSSSEIEVPLLGSSGSSEVELPLLSSKPSSETASSGLTSKTSSEASVSSSVAKNSSSSGTSLLTPKSSSSTNTSLLTSKSTSQVAASLLASKSSSQTSGSLVSKSTSLASVSQLASKSSSQTSTSQLPSKSTSQSSESSVKFSCKLTNEDVKQKQPFFNRLYKTVAWKLVAVGGFSPNVNHGELLNAAIEALKATLDVFFVPLKELADLPQNKSSQESIVCELRCKSVYLGTGCGKSKENAKAVASREALKLFLKKKVVVKICKRKYRGSEIEDLVLLDEESRPVNLPPALKHPQELL
B2 was tested, and the binding [2] was “binds”.
